Measured values published in the supplement of paper PMC10849652.
Some of the results follow.

Chains of the proteins cited; added tags and fusions are not shown. Lines headed by an entry give the natural chain unless they say otherwise; changes in a name come on top.
UniProt P62253: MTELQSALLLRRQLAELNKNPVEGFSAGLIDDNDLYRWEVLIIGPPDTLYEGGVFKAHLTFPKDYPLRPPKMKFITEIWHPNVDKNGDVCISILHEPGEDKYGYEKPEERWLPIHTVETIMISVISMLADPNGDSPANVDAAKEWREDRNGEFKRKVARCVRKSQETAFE
UniProt Q14139: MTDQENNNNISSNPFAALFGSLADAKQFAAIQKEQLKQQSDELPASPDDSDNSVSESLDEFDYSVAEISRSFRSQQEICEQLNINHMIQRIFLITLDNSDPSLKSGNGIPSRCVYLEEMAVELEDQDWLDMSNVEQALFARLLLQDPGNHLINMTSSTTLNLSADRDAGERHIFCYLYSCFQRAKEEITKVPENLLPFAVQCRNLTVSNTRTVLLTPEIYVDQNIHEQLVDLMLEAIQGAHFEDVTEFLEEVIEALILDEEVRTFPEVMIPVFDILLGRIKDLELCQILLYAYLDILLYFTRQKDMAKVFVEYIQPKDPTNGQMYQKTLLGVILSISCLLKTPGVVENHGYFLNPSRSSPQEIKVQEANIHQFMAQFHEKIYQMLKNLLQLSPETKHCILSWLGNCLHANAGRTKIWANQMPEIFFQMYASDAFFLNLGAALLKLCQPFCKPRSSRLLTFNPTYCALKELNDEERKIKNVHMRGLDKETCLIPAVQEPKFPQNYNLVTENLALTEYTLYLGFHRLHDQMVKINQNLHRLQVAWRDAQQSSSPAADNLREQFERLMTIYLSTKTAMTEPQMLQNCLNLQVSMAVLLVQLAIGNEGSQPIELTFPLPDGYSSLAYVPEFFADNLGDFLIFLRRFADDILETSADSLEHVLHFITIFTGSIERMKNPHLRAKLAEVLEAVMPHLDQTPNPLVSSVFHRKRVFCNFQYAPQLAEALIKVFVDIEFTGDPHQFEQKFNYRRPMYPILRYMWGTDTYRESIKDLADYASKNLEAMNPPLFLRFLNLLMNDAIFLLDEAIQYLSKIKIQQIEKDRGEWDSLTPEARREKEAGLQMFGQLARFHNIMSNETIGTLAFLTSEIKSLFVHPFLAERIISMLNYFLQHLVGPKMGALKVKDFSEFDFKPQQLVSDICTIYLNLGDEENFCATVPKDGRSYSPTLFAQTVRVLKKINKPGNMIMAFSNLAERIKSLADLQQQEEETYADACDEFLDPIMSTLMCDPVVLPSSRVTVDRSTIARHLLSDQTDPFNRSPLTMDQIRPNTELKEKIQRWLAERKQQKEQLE
UniProt Q96CW5, whole entry, looked up: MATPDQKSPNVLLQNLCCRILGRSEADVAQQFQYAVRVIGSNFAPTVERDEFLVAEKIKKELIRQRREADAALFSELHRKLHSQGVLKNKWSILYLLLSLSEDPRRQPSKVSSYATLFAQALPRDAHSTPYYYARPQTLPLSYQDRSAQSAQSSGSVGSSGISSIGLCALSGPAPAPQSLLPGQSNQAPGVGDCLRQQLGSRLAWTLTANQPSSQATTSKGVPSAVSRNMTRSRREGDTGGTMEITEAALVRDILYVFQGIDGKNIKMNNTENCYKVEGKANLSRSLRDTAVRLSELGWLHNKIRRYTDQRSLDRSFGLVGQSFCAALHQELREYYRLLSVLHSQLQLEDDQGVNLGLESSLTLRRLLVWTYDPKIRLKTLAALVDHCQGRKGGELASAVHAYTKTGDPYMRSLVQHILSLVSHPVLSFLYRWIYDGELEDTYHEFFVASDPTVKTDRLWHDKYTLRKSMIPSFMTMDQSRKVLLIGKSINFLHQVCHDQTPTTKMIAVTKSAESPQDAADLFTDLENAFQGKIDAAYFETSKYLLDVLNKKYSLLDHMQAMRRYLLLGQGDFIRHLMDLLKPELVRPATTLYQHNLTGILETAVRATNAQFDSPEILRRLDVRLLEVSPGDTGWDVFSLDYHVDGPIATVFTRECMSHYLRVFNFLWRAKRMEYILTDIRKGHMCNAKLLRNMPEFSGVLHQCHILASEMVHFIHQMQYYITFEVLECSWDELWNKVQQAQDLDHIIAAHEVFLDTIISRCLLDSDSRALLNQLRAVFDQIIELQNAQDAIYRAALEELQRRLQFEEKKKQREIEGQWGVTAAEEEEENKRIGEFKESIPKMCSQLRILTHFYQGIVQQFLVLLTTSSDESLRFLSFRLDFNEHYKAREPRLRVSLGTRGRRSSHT
UniProt P68363, whole entry, looked up: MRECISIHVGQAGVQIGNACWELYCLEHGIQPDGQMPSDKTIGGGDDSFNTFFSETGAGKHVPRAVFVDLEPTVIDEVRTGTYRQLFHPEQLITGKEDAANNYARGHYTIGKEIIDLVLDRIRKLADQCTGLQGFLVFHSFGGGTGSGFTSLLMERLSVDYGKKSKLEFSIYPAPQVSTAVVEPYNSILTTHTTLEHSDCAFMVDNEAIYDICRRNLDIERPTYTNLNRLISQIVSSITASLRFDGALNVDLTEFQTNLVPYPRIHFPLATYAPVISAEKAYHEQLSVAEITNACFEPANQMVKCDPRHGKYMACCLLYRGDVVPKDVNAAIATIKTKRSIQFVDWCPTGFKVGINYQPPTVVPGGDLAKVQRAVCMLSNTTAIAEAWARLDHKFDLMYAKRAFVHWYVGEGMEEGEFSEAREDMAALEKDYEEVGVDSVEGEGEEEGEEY
UniProt Q9NZI7: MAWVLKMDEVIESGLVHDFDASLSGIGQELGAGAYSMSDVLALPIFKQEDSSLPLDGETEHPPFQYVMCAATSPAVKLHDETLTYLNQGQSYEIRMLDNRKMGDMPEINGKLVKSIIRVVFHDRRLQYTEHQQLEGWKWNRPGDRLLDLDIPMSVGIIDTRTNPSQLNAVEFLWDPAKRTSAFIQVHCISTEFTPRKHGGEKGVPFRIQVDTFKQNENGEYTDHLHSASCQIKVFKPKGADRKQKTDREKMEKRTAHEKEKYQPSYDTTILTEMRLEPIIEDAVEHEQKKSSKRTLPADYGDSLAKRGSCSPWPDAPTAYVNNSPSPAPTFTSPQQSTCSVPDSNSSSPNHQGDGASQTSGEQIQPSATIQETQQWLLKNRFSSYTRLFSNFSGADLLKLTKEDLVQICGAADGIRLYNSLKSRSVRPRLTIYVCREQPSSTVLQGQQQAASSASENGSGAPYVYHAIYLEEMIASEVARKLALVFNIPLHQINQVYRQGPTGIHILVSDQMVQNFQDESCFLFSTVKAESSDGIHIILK
UniProt Q8N806: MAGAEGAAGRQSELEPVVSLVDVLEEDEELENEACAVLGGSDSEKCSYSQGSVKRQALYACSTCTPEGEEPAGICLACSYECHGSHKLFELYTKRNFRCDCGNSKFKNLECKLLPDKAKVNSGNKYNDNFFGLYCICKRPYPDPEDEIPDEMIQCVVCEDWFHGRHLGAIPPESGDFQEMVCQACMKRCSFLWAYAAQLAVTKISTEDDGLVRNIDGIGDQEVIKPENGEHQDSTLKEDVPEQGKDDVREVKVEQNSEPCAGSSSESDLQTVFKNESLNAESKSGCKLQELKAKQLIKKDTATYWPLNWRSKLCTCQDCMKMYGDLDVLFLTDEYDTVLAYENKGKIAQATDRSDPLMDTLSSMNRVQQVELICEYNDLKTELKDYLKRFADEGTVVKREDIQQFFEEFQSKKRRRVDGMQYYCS
UniProt P51965: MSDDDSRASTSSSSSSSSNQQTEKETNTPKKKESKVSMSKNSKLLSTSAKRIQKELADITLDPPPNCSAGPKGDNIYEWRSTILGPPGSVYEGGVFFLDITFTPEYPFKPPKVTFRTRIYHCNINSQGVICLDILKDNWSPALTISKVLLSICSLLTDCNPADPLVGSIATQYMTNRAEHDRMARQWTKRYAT
UniProt Q5T6F2: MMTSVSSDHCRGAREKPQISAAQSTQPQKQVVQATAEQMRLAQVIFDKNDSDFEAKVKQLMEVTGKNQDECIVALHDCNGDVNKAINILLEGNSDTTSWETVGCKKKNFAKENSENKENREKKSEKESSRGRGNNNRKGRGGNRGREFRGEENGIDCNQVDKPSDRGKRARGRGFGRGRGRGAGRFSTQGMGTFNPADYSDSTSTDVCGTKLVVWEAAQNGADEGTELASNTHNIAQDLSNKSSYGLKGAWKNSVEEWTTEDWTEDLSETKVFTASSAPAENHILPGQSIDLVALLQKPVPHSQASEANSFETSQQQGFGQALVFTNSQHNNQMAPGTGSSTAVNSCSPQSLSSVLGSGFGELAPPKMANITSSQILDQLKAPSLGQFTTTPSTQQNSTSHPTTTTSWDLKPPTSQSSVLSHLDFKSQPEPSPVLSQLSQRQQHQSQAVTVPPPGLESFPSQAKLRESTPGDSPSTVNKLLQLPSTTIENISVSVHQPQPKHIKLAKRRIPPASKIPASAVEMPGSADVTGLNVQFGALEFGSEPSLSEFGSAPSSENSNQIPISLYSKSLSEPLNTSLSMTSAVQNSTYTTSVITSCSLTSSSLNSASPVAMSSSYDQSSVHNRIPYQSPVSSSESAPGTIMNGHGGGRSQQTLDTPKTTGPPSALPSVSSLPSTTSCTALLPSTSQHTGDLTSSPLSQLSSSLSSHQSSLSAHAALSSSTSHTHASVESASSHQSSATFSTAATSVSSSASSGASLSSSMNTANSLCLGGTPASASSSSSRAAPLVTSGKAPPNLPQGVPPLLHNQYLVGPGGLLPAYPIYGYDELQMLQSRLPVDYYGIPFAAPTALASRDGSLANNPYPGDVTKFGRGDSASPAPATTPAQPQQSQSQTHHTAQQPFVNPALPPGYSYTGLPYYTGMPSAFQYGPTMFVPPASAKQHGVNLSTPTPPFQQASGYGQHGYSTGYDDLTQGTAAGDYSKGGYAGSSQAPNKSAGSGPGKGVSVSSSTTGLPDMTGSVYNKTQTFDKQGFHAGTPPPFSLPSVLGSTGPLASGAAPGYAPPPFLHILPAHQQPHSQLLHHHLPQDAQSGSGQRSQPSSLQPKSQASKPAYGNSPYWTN
UniProt Q01081: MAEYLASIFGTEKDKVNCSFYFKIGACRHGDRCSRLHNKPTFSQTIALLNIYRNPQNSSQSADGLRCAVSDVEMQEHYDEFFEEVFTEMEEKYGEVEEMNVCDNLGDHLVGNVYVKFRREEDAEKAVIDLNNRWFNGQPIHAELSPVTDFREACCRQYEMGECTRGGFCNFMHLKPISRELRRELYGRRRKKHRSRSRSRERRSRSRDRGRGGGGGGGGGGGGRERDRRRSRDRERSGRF
UniProt Q9H832: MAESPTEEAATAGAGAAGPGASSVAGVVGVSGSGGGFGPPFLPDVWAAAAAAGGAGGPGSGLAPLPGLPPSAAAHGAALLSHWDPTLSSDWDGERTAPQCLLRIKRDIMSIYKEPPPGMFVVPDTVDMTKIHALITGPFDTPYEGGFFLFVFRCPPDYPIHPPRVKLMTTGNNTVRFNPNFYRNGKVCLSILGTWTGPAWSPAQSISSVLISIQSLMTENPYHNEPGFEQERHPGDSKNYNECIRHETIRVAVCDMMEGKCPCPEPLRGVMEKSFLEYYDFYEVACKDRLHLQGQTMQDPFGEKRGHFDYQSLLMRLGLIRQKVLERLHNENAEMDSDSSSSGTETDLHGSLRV
UniProt P61077: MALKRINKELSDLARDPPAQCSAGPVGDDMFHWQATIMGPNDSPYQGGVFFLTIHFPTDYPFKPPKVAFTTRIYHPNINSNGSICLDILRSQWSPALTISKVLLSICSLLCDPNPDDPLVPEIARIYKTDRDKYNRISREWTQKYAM
UniProt O94888: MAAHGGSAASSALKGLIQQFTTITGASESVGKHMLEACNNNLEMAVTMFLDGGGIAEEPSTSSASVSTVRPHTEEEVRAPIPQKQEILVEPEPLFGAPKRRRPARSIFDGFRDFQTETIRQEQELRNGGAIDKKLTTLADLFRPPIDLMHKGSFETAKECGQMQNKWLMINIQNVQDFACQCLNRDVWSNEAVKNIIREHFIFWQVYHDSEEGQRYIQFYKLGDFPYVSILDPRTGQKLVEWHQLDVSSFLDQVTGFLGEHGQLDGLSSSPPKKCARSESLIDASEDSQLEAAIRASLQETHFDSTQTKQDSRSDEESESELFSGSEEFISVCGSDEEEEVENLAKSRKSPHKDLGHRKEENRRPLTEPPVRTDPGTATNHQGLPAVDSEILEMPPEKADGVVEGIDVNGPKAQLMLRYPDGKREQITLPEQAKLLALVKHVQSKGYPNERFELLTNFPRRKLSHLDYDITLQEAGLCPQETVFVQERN
UniProt P61088: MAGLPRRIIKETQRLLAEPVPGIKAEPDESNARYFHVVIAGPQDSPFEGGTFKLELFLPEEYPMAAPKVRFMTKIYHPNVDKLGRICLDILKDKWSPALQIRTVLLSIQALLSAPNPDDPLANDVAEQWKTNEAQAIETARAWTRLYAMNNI
UniProt P63279, whole entry, looked up: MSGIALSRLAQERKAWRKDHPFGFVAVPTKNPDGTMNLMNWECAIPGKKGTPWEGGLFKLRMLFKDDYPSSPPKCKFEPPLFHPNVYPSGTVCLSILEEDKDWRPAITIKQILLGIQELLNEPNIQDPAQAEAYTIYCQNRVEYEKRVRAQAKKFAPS

Tests used:
Test in all cases: log2 fold change, soluble protein after heating vs DMSO (PISA); higher = thermal stabilisation; K562 lysate, 10 uM; active = over 0.2 and 3.5 SD of the protein, either way, in both replicates (recomputed)
[1] = compound: CS(=O)(=O)CCNCc1ccc(-c2ccc3ncnc(Nc4ccc(OCc5cccc(F)c5)c(Cl)c4)c3c2)o1 [lapatinib]
Outline: (§1)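 Quantification was by TMTpro 16plex LC-MS/MS with equalised channel sums, applied to the supernatant after 21,000xg for 90 min. Samples were crude K562 extract at 1 mg/mL protein in PBS pH 7.4 with 1 mM MgCl2, treated with 10 μM compound for 30 min, heated for 3 min across 48°C-58°C, pooled and brought to 0.5% NP-40 at 4°C. Values are log-two fold changes in thermal stability relative to solvent controls, from duplicates.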

[2] = compound: CS(=O)(=O)N1CCN(Cc2cc3nc(-c4cccc5[nH]ncc45)nc(N4CCOCC4)c3s2)CC1 [pictilisib]
Outline: as §1

[3] = compound: C[C@@H](Oc1cc(-c2cnn(C3CCNCC3)c2)cnc1N)c1c(Cl)ccc(F)c1Cl [crizotinib]
Outline: as §1

[4] = compound: C[C@H](C1=CC=C(C=C1)C(=O)NC2=C3C=CNC3=NC=C2)N
Outline: as §1

[5] = compound: C[C@H](Nc1ncnc2nc[nH]c12)c1cc2cccc(Cl)c2c(=O)n1-c1ccccc1 [duvelisib]
Outline: as §1

[6] = compound: Cc1cc(Nc2cc(CN3CCOCC3)c3nc(C)c(Cc4ccc(Cl)cc4F)n3n2)n[nH]1 [gandotinib]
Outline: as §1

[7] = compound: Cc1cc(Nc2cc(N3CCN(C)CC3)nc(Sc3ccc(NC(=O)C4CC4)cc3)n2)n[nH]1 [tozasertib]
Outline: as §1

[8] = compound: Cc1ccc(-n2nc(C(C)(C)C)cc2NC(=O)Nc2ccc(OCCN3CCOCC3)c3ccccc23)cc1 [doramapimod]
Outline: as §1

[9] = compound: Cc1ccc(NC(=O)c2ccc(CN3CC[C@H](N(C)C)C3)c(C(F)(F)F)c2)cc1Nc1nccc(-c2cncnc2)n1 [bafetinib]
Outline: as §1

[10] = compound: Cc1cccc(CC(=O)N2CCc3c2ccc(-c2cn(C)c4ncnc(N)c24)c3F)n1
Outline: as §1

[11] = compound: Cc1cn(-c2cc(NC(=O)c3ccc(C)c(Nc4nccc(-c5cccnc5)n4)c3)cc(C(F)(F)F)c2)cn1 [nilotinib]
Outline: as §1

[12] = compound: Cc1nc(Nc2n[nH]c3c2CN(C(=O)N[C@H](CN(C)C)c2ccccc2)C3(C)C)c2sccc2n1
Outline: as §1

[13] = compound: Cc1nc(Nc2ncc(C(=O)Nc3c(C)cccc3Cl)s2)cc(N2CCN(CCO)CC2)n1 [dasatinib]
Outline: as §1

[14] = compound: Cc1ncc(-c2ccnc(Nc3ccc(S(C)(=O)=O)cc3)n2)n1C(C)C
Outline: as §1

[15] = compound: Cn1cc(-c2ccc3c(c2)CCN3C(=O)Cc2cccc(C(F)(F)F)c2)c2c(N)ncnc21
Outline: as §1

[16] = compound: Cn1cc(CNCC2CCN(c3ncc(C(=O)NO)cn3)CC2)c2ccccc21 [quisinostat]
Outline: as §1

[17] = compound: Cn1cncc1[C@@](N)(c1ccc(Cl)cc1)c1ccc2c(c1)c(-c1cccc(Cl)c1)cc(=O)n2C [tipifarnib]
Outline: as §1

[18] = compound: NC(=O)Nc1cc(-c2cccc(F)c2)sc1C(=O)N[C@H]1CCCNC1
Outline: as §1

[19] = compound: NC(=O)c1cnc(N[C@@H]2CCCC[C@@H]2N)nc1Nc1cccc(-n2nccn2)c1
Outline: as §1

[20] = compound: NC1(c2ccc(-c3nc4ccn5c(=O)[nH]nc5c4cc3-c3ccccc3)cc2)CCC1
Outline: as §1

Measured: log2 fold change

UBE2G1 (UniProt P62253)
inactive: [1] -0.019 | [2] -0.016 | [3] 0.057 | [4] 0.009 | [5] 0.008 | [6] 0.038 | [7] -0.052 | [8] -0.012 | [9] -0.021 | [10] -0.012 | [11] -0.038 | [12] -0.005 | [13] 0.013 | [14] 0 | [15] -0.001 | [16] 0 | [17] -0.004 | [18] -0.011 | [19] -0.013 | [20] 0.062

UBE4A isoform 2 (UniProt Q14139)
inactive: [1] -0.019 | [2] -0.007 | [3] -0.059 | [4] -0.009 | [5] 0.016 | [6] -0.15 | [7] 0 | [8] 0.004 | [9] -0.054 | [10] 0.043 | [11] 0.023 | [12] -0.009 | [13] -0.075 | [14] -0.022 | [15] 0.026 | [16] -0.018 | [17] -0.003 | [18] 0.054 | [19] 0.002 | [20] 0.017

TUBGCP3 (UniProt Q96CW5)
inactive: [1] -0.017 | [2] 0.012 | [3] -0.055 | [4] -0.012 | [5] 0.036 | [6] -0.054 | [7] 0.027 | [8] 0.014 | [9] -0.057 | [10] 0.013 | [11] -0.031 | [12] 0.029 | [13] -0.038 | [14] 0.043 | [15] 0.038 | [16] -0.083 | [17] -0.023 | [18] 0.009 | [19] 0.002 | [20] 0.012

TUBA1B (UniProt P68363)
inactive: [1] 0.004 | [2] 0.001 | [3] -0.039 | [4] -0.015 | [5] -0.011 | [6] 0.022 | [7] -0.011 | [8] 0.023 | [9] -0.025 | [10] 0.002 | [11] -0.043 | [12] -0.009 | [13] -0.051 | [14] -0.036 | [15] 0.01 | [16] -0.021 | [17] 0.002 | [18] 0.041 | [19] 0.002 | [20] -0.013

Copied from the listing (two entries):
UBE2G1 (UniProt P62253)
inactive: [1] -0.019 | [2] -0.016 | [3] 0.057 | [4] 0.009 | [5] 0.008 | [6] 0.038 | [7] -0.052 | [8] -0.012 | [9] -0.021 | [10] -0.012 | [11] -0.038 | [12] -0.005 | [13] 0.013 | [14] 0 | [15] -0.001 | [16] 0 | [17] -0.004 | [18] -0.011 | [19] -0.013 | [20] 0.062

UBE4A isoform 2 (UniProt Q14139)
inactive: [1] -0.019 | [2] -0.007 | [3] -0.059 | [4] -0.009 | [5] 0.016 | [6] -0.15 | [7] 0 | [8] 0.004 | [9] -0.054 | [10] 0.043 | [11] 0.023 | [12] -0.009 | [13] -0.075 | [14] -0.022 | [15] 0.026 | [16] -0.018 | [17] -0.003 | [18] 0.054 | [19] 0.002 | [20] 0.017

Additional records

UBP1 (UniProt Q9NZI7)
inactive: [1] 0.049 | [2] -0.004 | [3] -0.202 | [4] 0.206 | [5] -0.025 | [6] -0.01 | [7] -0.043 | [8] 0.15 | [9] -0.029 | [10] -0.124 | [11] -0.019 | [12] -0.039 | [13] 0.008 | [14] 0.05 | [15] 0.002 | [16] -0.125 | [17] -0.084 | [18] 0.01 | [19] 0.008 | [20] -0.058

UBR7 (UniProt Q8N806)
inactive: [1] 0.001 | [2] -0.007 | [3] 0.003 | [4] 0.161 | [5] 0.038 | [6] -0.143 | [7] 0.045 | [8] 0.031 | [9] 0.024 | [10] -0.189 | [11] -0.017 | [12] 0.093 | [13] 0.017 | [14] 0.016 | [15] -0.02 | [16] 0.008 | [17] -0.017 | [18] -0.044 | [19] 0.021 | [20] -0.002

UBA6
inactive: [1] -0.011 | [2] -0.01 | [3] -0.023 | [4] 0.002 | [5] 0.011 | [6] -0.066 | [7] -0.013 | [8] -0.001 | [9] -0.003 | [10] -0.009 | [11] 0.018 | [12] 0.016 | [13] -0.021 | [14] 0.019 | [15] 0.011 | [16] -0.012 | [17] 0.007 | [18] 0.029 | [19] 0.011 | [20] -0.014

UBE2E1 (UniProt P51965)
inactive: [1] -0.024 | [2] -0.04 | [3] 0.203 | [4] 0.097 | [5] -0.02 | [6] -0.066 | [7] -0.01 | [8] -0.08 | [9] 0.057 | [10] -0.043 | [11] 0.045 | [12] 0.017 | [13] 0.034 | [14] 0.134 | [15] -0.025 | [16] 0.207 | [17] -0.007 | [18] -0.011 | [19] -0.076 | [20] 0.122

UBAP2 (UniProt Q5T6F2)
inactive: [1] -0.04 | [2] -0.079 | [3] 0.091 | [4] -0.173 | [5] -0.003 | [6] 0.095 | [7] -0.02 | [8] -0.097 | [9] -0.066 | [10] 0.061 | [11] -0.093 | [12] 0.008 | [13] -0.042 | [14] 0.021 | [15] -0.023 | [16] -0.008 | [17] -0.073 | [18] 0.019 | [19] 0.016 | [20] 0.029

U2AF1 isoform 2 (UniProt Q01081)
inactive: [1] 0.019 | [2] 0.003 | [3] -0.063 | [4] -0.096 | [5] 0.043 | [6] -0.034 | [7] -0.013 | [8] 0.099 | [9] 0.006 | [10] 0.136 | [11] 0.026 | [12] -0.016 | [13] -0.086 | [14] 0.019 | [15] -0.066 | [16] -0.074 | [17] 0.002 | [18] -0.03 | [19] -0.009 | [20] 0.004

UBE2Z (UniProt Q9H832)
inactive: [1] 0.027 | [2] -0.037 | [3] 0.003 | [4] -0.104 | [5] -0.032 | [6] 0.028 | [7] -0.017 | [8] -0.002 | [9] -0.032 | [10] 0.039 | [11] -0.016 | [12] 0.026 | [13] 0.026 | [14] 0.002 | [15] -0.006 | [16] 0.009 | [17] 0.012 | [18] 0.016 | [19] 0.04 | [20] 0.051

UBE2D3 isoform 3 (UniProt P61077)
inactive: [1] -0.001 | [2] 0.034 | [3] -0.038 | [4] -0.067 | [5] -0.025 | [6] 0.019 | [7] 0.002 | [8] -0.007 | [9] -0.009 | [10] 0.014 | [11] 0.046 | [12] -0.071 | [13] 0.024 | [14] -0.012 | [15] -0.057 | [16] 0.011 | [17] 0.015 | [18] -0.001 | [19] -0.02 | [20] -0.015

UBXN7 (UniProt O94888)
inactive: [1] -0.008 | [2] 0 | [3] -0.003 | [4] -0.043 | [5] 0.005 | [6] 0.076 | [7] 0.024 | [8] 0.001 | [9] 0.002 | [10] 0.02 | [11] -0.008 | [12] -0.012 | [13] 0.018 | [14] -0.004 | [15] -0.048 | [16] -0.001 | [17] 0.024 | [18] -0.02 | [19] 0.025 | [20] -0.019

TUBGCP2 isoform 4 (UniProt Q9BSJ2)
inactive: [1] -0.008 | [2] -0.029 | [3] -0.119 | [4] 0.08 | [5] -0.001 | [6] -0.087 | [7] 0.002 | [8] 0.033 | [9] 0.002 | [10] 0.009 | [11] -0.016 | [12] 0.012 | [13] -0.058 | [14] 0.012 | [15] 0.064 | [16] -0.091 | [17] -0.001 | [18] 0.037 | [19] 0 | [20] -0.016

UBE2N (UniProt P61088)
inactive: [1] -0.008 | [2] -0.017 | [3] -0.004 | [4] 0.031 | [5] 0.055 | [6] -0.014 | [7] 0.022 | [8] 0.033 | [9] -0.007 | [10] 0.003 | [11] 0.034 | [12] -0.048 | [13] -0.008 | [14] 0.07 | [15] -0.013 | [16] 0.009 | [17] 0.048 | [18] -0.046 | [19] -0.001 | [20] 0.037

UBE2I (UniProt P63279)
inactive: [1] 0.018 | [2] -0.022 | [3] -0.009 | [4] -0.061 | [5] -0.019 | [6] 0.015 | [7] -0.038 | [8] 0.014 | [9] -0.035 | [10] 0.001 | [11] 0.006 | [12] 0.011 | [13] -0.003 | [14] -0.009 | [15] 0.004 | [16] -0.008 | [17] 0.031 | [18] 0.006 | [19] -0.028 | [20] -0.024
